Patent US8981084B2, “Oxadiazole HDAC inhibitors” (Tempero Pharmaceuticals, Inc., priority 2011, dated 2015)
Some entries share one result that the patent states for a list of compounds.

Protein sequences, listed by entry. Tags and fused reporters are not part of them. Residues count along the entry.
UniProt Q9UKV0, 1-1066 isoform Q9UKV0-5: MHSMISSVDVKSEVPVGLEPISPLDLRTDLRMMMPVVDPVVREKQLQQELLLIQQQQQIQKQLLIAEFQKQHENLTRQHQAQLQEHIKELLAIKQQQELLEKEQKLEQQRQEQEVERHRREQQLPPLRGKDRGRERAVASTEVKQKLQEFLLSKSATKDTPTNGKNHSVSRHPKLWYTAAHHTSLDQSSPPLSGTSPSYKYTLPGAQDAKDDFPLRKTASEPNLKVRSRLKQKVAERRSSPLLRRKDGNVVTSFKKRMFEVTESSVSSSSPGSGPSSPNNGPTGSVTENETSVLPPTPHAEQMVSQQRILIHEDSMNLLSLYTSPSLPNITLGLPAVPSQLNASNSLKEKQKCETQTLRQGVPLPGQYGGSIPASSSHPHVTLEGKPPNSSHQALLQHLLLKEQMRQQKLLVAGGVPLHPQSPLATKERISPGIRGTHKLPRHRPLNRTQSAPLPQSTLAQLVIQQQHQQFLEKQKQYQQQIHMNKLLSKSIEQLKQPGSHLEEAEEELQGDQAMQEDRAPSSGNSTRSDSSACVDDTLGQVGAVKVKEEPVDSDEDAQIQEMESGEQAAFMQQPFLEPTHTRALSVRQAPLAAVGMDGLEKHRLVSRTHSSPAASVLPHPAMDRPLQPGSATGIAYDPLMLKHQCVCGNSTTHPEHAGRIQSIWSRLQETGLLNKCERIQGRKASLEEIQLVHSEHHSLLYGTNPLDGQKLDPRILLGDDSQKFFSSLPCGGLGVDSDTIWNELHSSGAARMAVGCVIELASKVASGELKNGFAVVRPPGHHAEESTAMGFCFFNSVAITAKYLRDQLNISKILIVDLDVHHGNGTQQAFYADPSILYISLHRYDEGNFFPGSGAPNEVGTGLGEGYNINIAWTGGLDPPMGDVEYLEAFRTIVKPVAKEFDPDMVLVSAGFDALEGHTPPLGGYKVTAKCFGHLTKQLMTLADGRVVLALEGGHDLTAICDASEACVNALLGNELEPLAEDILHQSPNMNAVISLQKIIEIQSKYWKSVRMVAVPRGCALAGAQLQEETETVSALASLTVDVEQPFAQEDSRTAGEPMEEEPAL

Target: T1, Recombinant HDAC9 isoform 4 (Homo sapiens, UniProt Q9UKV0)
T1 construct: purchased BPS Bioscience
Experiment: Histone Deacetylase 9 (HDAC9) inhibition assay, fluorogenic substrate
Type: biochemical
Settings: mean of a minimum of 2 experiments; 11 point 3x dilution series from 100 uM; Class IIa HDAC-specific fluorogenic substrate 4.5 uM
Description: Histone Deacetylase 9 (HDAC9) Inhibition Assay:
Novel histone deacetylase 9 (HDAC9) inhibitors were characterized in an in vitro biochemical functional assay. The assay measures the increased fluorescent signal due to deacetylation, by HDAC9, of a fluorogenic substrate. The commercial available substrate is Class IIa HDAC-specific and contains an acetylated lysine residue and would releases the fluorescent signal upon trypsin cleavage after deacetylation.
Specifically, test compounds diluted to various concentrations in 100% DMSO are first dispensed into 384-well assay plates. Recombinant HDAC9 isoform 4 (purchased from BPS Bioscience) in complete assay buffer (50 mM Tris-HCl, pH 8.0, 137 mM NaCl, 2.7 mM KCl, 1 mM MgCl2, 0.05% BSA & 0.005% Tween 20) were then added to each well (5 uL/well) using Multidrop Combi (Thermo Scientific), followed by 5 uL/well substrate (purchased from BPS Bioscience, 4.5 uM final). After 45 minutes incubation at room temperature, 10 uL 2× developer solution (assay buffer with 40 uM Trypsin and 20 uM Trichostatin A) was added. The plates were then incubated 1 hour at room temperature before reading in fluorescent intensity mode at 450 nm in an Envision (Perkin Elmer) plate reader. Percent Inhibition of HDAC9 activity by compounds in each test wells was calculated by normalizing to fluorescent signal in control wells containing DMSO only. The pIC50s value of test compounds were calculated from non-linear curve fitting, using ActivityBase5 data analysis tool (IDBS), from 11 point 3× dilution series starting from 100 uM final compound concentration.
For dose response experiments, normalized data were fit by ABASE/XC50 using the equation y=a+(b−a)/(1+(10^×/10^c)^d), where a is the minimum % activity, b is the maximum % activity, c is the pIC50, d is the Hill slope.
The pIC50s are averaged to determine a mean value, for a minimum of 2 experiments. […] For instance, the compounds of Examples 1, 38, 61 and 79 inhibited HDAC9 in the above method with a mean pIC50 of >6.

| Structure (SMILES) | mean pIC50, inhibition of HDAC9 |
| --- | --- |
| O=C(c1cccc(-c2noc(C(F)(F)F)n2)c1)N1CCN(c2cccc(-c3ccccc3)c2)CC1 [Example 78, (4-([1,1′-Biphenyl]-3-yl)piperazin-1-yl)(3-(5-(trifluoromethyl)-1,2,4-oxadiazol-3-yl)phenyl)methanone] | greater than 4.0 |
| O=C(c1cccc(-c2noc(C(F)(F)F)n2)c1)N1CCN(Cc2ccc([N+](=O)[O-])cc2)CC1 [Example 23, (4-(4-nitrobenzyl)piperazin-1-yl)(3-(5-(trifluoromethyl)-1,2,4-oxadiazol-3-yl)phenyl)methanone] | greater than 4.0 |
| N#Cc1ccc(C2CCN(C(=O)c3cccc(-c4noc(C(F)(F)F)n4)c3)CC2)nc1 [Example 50, 6-(1-(3-(5-(Trifluoromethyl)-1,2,4-oxadiazol-3-yl)benzoyl)piperidin-4-yl)nicotinonitrile] | greater than 4.0 |
| COc1ccccc1N1CCN(C(=O)c2cccc(-c3noc(C(F)(F)F)n3)c2)CC1 [Example 74, (4-(2-Methoxyphenyl)piperazin-1-yl)(3-(5-(trifluoromethyl)-1,2,4-oxadiazol-3-yl)phenyl)methanone] | greater than 4.0 |
| O=C(c1cccc(-c2noc(C(F)(F)F)n2)c1)N1CCN(c2cnccn2)CC1 [Example 4, (4-(pyrazin-2-yl)piperazin-1-yl)(3-(5-(trifluoromethyl)-1,2,4-oxadiazol-3-yl)phenyl)methanone] | greater than 4.0 |
| O=C(c1cccc(-c2noc(C(F)(F)F)n2)c1)N1CCCC(Cc2ccccc2)C1 (centres unmarked) [Example 37, (3-Benzylpiperidin-1-yl)(3-(5-(trifluoromethyl)-1,2,4-oxadiazol-3-yl)phenyl)methanone] | greater than 4.0 |
| O=C(Nc1cccc(-c2noc(C(F)(F)F)n2)c1)C1CCN(c2nc(-c3ccccc3)cs2)C1 (centres unmarked) [Example 48, 1-(4-Phenylthiazol-2-yl)-N-(3-(5-(trifluoromethyl)-1,2,4-oxadiazol-3-yl)phenyl)pyrrolidine-3-carboxamide] | greater than 4.0 |
| O=C(c1cccc(-c2noc(C(F)(F)F)n2)c1)N1CCN(c2nc3ccccc3o2)CC1 [Example 81, (4-(Benzo[d]oxazol-2-yl)piperazin-1-yl)(3-(5-(trifluoromethyl)-1,2,4-oxadiazol-3-yl)phenyl)methanone] | greater than 4.0 |
| N#Cc1cccnc1N1CCN(C(=O)c2cccc(-c3noc(C(F)(F)F)n3)c2)CC1 [Example 71, 2-(4-(3-(5-(Trifluoromethyl)-1,2,4-oxadiazol-3-yl)benzoyl)piperazin-1-yl)nicotinonitrile] | greater than 4.0 |
| N#Cc1ccc(N2CCC(C(=O)Nc3cccc(-c4noc(C(F)(F)F)n4)c3)C2)nc1 (centres unmarked) [Example 52, 1-(5-Cyanopyridin-2-yl)-N-(3-(5-(trifluoromethyl)-1,2,4-oxadiazol-3-yl)phenyl)pyrrolidine-3-carboxamide] | greater than 4.0 |
| COc1ccc(N2CCN(C(=O)c3cccc(-c4noc(C(F)(F)F)n4)c3)CC2)nc1 [Example 63, (4-(5-Methoxypyridin-2-yl)piperazin-1-yl)(3-(5-(trifluoromethyl)-1,2,4-oxadiazol-3-yl)phenyl)methanone] | greater than 4.0 |
| CC1CN(c2ccc(C#N)cn2)CC(C)N1C(=O)c1cccc(-c2noc(C(F)(F)F)n2)c1 (centres unmarked) [Example 41, 6-(3,5-Dimethyl-4-(3-(5-(trifluoromethyl)-1,2,4-oxadiazol-3-yl)benzoyl)piperazin-1-yl)nicotinonitrile] | greater than 4.0 |
| CC1(C)CN(C(=O)c2cccc(-c3noc(C(F)(F)F)n3)c2)CCN1c1ccc(C#N)cn1 [Example 54, 6-(2,2-Dimethyl-4-(3-(5-(trifluoromethyl)-1,2,4-oxadiazol-3-yl)benzoyl)piperazin-1-yl)nicotinonitrile] | greater than 4.0 |
| CC1CN(c2ccc(C#N)cn2)CCN1C(=O)c1cccc(-c2ccc(C(=O)C(F)(F)F)s2)c1 (centres unmarked) [Example 60, 6-(3-Methyl-4-(3-(5-(2,2,2-trifluoroacetyl)thiophen-2-yl)benzoyl)piperazin-1-yl)nicotinonitrile] | greater than 4.0 |
| CCN(CC)CCCN1CCN(C(=O)c2cccc(-c3noc(C(F)(F)F)n3)c2)CC1 [Example 19, (4-(3-(diethylamino)propyl)piperazin-1-yl)(3-(5-(trifluoromethyl)-1,2,4-oxadiazol-3-yl)phenyl)methanone] | greater than 4.0 |
| N#Cc1ccc(N2CCCC(NC(=O)c3cccc(-c4noc(C(F)(F)F)n4)c3)C2)nc1 (centres unmarked) [Example 55, N-(1-(5-Cyanopyridin-2-yl)piperidin-3-yl)-3-(5-(trifluoromethyl)-1,2,4-oxadiazol-3-yl)benzamide] | greater than 4.0 |
| N#Cc1ccc(N2CCC(NC(=O)c3cccc(-c4noc(C(F)(F)F)n4)c3)CC2)nc1 [Example 51, N-(1-(5-Cyanopyridin-2-yl)piperidin-4-yl)-3-(5-(trifluoromethyl)-1,2,4-oxadiazol-3-yl)benzamide] | greater than 4.0 |
| O=C(c1cccc(-c2noc(C(F)(F)F)n2)c1)N1CCN(c2nsc3ccccc23)CC1 [Example 31, (4-(benzo[d]isothiazol-3-yl)piperazin-1-yl)(3-(5-(trifluoromethyl)-1,2,4-oxadiazol-3-yl)phenyl)methanone] | greater than 4.0 |
| CC1CN(Cc2ccc(C#N)cn2)CCN1C(=O)c1cccc(-c2noc(C(F)(F)F)n2)c1 (centres unmarked) [Example 46, 6-((3-Methyl-4-(3-(5-(trifluoromethyl)-1,2,4-oxadiazol-3-yl)benzoyl)piperazin-1-yl)methyl)nicotinonitrile] | greater than 4.0 |
| O=C(c1cccc(-c2noc(C(F)(F)F)n2)c1)N1CCN(c2cccc(F)c2)CC1 [Example 28, (4-(3-fluorophenyl)piperazin-1-yl)(3-(5-(trifluoromethyl)-1,2,4-oxadiazol-3-yl)phenyl)methanone] | greater than 4.0 |
| N#Cc1nccnc1N1CCN(C(=O)c2cccc(-c3noc(C(F)(F)F)n3)c2)CC1 [Example 17, 3-(4-(3-(5-(trifluoromethyl)-1,2,4-oxadiazol-3-yl)benzoyl)piperazin-1-yl)pyrazine-2-carbonitrile] | greater than 4.0 |
| O=C(c1ccncc1)C1CNCCN1C(=O)c1cccc(-c2noc(C(F)(F)F)n2)c1 (centres unmarked) [Example 21, (4-picolinoylpiperazin-1-yl)(3-(5-(trifluoromethyl)-1,2,4-oxadiazol-3-yl)phenyl)methanone] | greater than 4.0 |
| O=C(c1cccc(-c2noc(C(F)(F)F)n2)c1)N1CCN(c2ncnc3ccsc23)CC1 [Example 22, (4-(thieno[3,2-d]pyrimidin-4-yl)piperazin-1-yl)(3-(5-(trifluoromethyl)-1,2,4-oxadiazol-3-yl)phenyl)methanone] | greater than 4.0 |
| NC(=O)C1CCCCN1C(=O)c1cccc(-c2noc(C(F)(F)F)n2)c1 (centres unmarked) [Example 5, 1-(3-(5-(trifluoromethyl)-1,2,4-oxadiazol-3-yl)benzoyl)piperidine-2-carboxamide] | greater than 4.0 |
| N#Cc1ccc(N2CCN(C(=O)c3cccc(-c4ccc(C(=O)C(F)(F)F)s4)c3)CC2)nc1 [Example 61, 6-(4-(3-(5-(2,2,2-Trifluoroacetyl)thiophen-2-yl)benzoyl)piperazin-1-yl)nicotinonitrile] | greater than 4.0 |
| O=C(c1cccc(-c2noc(C(F)(F)F)n2)c1)N1CCN(c2cccc3[nH]c(=O)[nH]c23)CC1 [Example 34, 4-(4-(3-(5-(trifluoromethyl)-1,2,4-oxadiazol-3-yl)benzoyl)piperazin-1-yl)-1H-benzo[d]imidazol-2(3H)-one] | greater than 4.0 |
| O=C(c1cccc(-c2noc(C(F)(F)F)n2)c1)N1CCC(n2c(=O)[nH]c3ccccc32)CC1 [Example 45, 1-(1-(3-(5-(trifluoromethyl)-1,2,4-oxadiazol-3-yl)benzoyl)piperidin-4-yl)-1H-benzo[d]imidazol-2(3H)-one] | greater than 4.0 |
| CCCCNC(=O)N1CCN(C(=O)c2cccc(-c3noc(C(F)(F)F)n3)c2)CC1 [Example 12, N-butyl-4-(3-(5-(trifluoromethyl)-1,2,4-oxadiazol-3-yl)benzoyl)piperazine-1-carboxamide] | greater than 4.0 |
| CC(=O)N(C)Cc1ccc(NC(=O)c2cccc(-c3noc(C(F)(F)F)n3)c2)cc1 [Example 35, N-(4-((N-Methylacetamido)methyl)phenyl)-3-(5-(trifluoromethyl)-1,2,4-oxadiazol-3-yl)benzamide] | greater than 4.0 |
